The experiment addresses Flag-tagged eIF3L (pSGFlag-eIF3L) in Vero cells (human) (UniProt Q9Y262). Description: co-IP.

The chains behind the UniProt entries cited, without tags or fusion partners. Residues count along the entry.
UniProt Q9Y262: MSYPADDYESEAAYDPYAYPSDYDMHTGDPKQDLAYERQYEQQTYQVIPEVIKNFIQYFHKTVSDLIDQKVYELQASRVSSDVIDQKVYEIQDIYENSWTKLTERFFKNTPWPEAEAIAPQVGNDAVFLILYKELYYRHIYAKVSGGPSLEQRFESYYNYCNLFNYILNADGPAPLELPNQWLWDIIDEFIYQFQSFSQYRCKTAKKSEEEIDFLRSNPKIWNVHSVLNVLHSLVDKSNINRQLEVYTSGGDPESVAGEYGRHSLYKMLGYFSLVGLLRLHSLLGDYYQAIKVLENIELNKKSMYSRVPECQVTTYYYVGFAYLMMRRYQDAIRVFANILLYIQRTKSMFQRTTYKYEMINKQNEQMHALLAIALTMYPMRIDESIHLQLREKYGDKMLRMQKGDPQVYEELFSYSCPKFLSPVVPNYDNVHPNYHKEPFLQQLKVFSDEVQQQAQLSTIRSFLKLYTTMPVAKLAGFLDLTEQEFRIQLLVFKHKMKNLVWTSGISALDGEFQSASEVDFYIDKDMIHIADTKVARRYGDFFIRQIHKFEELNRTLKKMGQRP
UniProt P03314, residues 2507-3411: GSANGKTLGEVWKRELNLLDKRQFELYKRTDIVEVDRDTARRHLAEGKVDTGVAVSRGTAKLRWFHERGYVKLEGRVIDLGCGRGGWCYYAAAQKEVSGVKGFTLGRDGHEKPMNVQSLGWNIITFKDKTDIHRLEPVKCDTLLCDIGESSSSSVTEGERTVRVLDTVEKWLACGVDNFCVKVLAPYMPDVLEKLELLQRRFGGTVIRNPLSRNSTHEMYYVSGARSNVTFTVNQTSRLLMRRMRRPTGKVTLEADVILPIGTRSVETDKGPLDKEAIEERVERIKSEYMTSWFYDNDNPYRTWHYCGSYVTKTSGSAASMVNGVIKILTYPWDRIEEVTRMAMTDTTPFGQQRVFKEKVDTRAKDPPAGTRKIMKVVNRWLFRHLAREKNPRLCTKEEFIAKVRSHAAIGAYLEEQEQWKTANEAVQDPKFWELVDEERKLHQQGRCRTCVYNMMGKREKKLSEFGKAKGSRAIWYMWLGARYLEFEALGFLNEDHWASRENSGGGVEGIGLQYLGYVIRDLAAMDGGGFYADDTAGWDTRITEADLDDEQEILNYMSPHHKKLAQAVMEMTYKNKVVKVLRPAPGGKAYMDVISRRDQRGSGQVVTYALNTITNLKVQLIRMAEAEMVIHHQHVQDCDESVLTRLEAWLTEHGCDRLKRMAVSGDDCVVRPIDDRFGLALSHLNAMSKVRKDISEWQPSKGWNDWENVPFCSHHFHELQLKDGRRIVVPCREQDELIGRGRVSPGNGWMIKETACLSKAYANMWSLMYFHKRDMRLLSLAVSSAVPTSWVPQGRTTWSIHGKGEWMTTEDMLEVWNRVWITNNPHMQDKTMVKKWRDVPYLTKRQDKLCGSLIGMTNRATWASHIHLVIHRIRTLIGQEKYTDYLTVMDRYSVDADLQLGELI

These are yes or no findings as the source states them, for the method shown. Binding seen in cells or lysates may run through a third protein. Some binding calls cover weakened binding; strength is not graded here.

Regarding “YFV NS5 protein from infected cells (from UniProt P03314)”, the binding result was “binds”.

The record behind these values is paper PMC3698205.
